The values that follow come from PMC9374436.

By UniProt entry, the sequences of proteins in these tests, tags left out.
UniProt P38682: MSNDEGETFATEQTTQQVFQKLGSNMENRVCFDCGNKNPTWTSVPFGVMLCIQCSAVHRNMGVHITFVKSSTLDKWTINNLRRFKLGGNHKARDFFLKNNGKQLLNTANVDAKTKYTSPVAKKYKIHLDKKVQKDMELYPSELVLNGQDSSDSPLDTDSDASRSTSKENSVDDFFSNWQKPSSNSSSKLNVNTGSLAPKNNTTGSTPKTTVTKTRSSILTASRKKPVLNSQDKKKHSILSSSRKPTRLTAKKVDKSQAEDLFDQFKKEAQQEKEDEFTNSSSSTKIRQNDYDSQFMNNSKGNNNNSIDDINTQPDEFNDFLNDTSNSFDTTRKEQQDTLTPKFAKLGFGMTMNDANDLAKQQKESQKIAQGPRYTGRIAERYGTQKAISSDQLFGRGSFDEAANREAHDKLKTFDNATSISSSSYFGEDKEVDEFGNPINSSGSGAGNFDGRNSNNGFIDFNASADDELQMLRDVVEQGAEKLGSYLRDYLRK
UniProt Q01590: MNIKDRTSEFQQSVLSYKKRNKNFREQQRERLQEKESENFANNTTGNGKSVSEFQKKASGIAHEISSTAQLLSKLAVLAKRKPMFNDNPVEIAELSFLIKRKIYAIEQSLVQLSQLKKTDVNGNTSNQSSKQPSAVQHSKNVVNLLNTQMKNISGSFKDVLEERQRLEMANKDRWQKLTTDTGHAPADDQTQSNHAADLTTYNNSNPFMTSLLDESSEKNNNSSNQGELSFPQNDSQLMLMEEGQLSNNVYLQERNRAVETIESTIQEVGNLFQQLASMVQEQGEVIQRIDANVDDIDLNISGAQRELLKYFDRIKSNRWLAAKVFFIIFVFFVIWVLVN

Experiment [1] deals with T1, αCOP-FLAG (S. cerevisiae) (UniProt P53622).
T1 sequence: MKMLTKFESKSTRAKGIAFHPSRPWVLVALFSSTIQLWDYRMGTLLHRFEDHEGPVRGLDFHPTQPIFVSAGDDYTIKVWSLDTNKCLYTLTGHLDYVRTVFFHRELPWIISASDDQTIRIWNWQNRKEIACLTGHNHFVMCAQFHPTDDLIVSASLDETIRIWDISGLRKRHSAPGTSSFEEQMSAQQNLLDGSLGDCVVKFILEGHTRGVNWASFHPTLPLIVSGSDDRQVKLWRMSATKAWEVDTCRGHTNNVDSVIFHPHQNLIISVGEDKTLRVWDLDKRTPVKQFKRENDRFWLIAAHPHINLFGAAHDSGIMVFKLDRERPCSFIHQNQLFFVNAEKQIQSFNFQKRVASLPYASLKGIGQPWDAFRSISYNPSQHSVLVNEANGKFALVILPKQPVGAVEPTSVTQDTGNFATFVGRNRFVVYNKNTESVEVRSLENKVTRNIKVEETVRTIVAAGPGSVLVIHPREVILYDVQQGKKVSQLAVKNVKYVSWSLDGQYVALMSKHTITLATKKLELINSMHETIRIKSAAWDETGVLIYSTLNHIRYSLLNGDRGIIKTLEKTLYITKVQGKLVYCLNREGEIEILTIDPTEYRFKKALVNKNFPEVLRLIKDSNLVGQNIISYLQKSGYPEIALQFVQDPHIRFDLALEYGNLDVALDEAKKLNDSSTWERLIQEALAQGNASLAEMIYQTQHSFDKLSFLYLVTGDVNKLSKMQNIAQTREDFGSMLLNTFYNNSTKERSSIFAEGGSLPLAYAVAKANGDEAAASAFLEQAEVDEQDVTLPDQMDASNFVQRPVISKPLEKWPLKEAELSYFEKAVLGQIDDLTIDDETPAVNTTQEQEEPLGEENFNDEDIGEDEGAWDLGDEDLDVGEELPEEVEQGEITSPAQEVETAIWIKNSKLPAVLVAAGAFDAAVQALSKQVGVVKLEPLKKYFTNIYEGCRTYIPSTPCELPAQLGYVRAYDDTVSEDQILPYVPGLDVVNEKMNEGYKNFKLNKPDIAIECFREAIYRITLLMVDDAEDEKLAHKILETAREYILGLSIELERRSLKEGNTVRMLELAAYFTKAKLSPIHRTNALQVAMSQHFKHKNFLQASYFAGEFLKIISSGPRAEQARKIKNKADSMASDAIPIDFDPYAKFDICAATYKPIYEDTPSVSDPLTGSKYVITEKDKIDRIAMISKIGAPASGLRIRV
Briefly: affinity purification with mass spectrometry; SILAC; αCOP-FLAG cells against untagged cells; anti-FLAG resin, ubiquitin-preserved conditions.

Experiment [2] deals with T2, Gos1-FLAG (S. cerevisiae) (UniProt P38736).
T2 sequence: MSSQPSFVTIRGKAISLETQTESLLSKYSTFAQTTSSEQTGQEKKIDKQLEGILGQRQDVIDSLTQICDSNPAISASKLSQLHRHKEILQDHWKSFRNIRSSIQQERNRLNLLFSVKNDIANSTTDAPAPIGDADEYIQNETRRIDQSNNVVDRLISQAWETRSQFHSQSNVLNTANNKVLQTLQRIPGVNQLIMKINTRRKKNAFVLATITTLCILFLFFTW
Briefly: affinity purification with mass spectrometry; SILAC; Gos1-FLAG cells against untagged cells; anti-FLAG M2 resin, lysis with 0.2% NP-40 and DUB inhibitors (ubiquitination preserved).

The target in experiment [3] is T3, Gos1-FLAG (S. cerevisiae), P38736.
T3 chain: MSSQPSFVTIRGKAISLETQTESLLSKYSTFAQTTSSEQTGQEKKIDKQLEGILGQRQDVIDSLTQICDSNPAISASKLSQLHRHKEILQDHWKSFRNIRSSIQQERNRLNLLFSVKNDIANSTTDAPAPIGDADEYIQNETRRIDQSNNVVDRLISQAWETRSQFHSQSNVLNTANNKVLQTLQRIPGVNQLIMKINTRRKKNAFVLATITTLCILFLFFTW
The experiment is described as above. The conditions noted are these: remark: other sources report otherwise.

For experiment [4], the target named is T2, Gos1-FLAG (S. cerevisiae). The description is as above. This is another data set of the same source.

Where two headings read alike, the source gives them in different places. No constants are given. Whether binding was seen depends on the method and setting. Binding seen in cells or lysates may run through a third protein. Here binding means that the protein was enriched with, or labelled near, the bait; the list need not be complete. Sequences can lack the tags named with a protein.

With ArfGAP Glo3 (from UniProt P38682 1-493), the binding result in experiment [1] is listed as “binds”.
For Sed5 (from UniProt Q01590 1-340), the binding entry in experiment [2] is “binds”.

B1: Ykt6, P36015 1-200 (protein)
chain: MRIYYIGVFRSGGEKALELSEVKDLSQFGFFERSSVGQFMTFFAETVASRTGAGQRQSIEEGNYIGHVYARSEGICGVLITDKEYPVRPAYTLLNKILDEYLVAHPKEEWADVTETNDALKMKQLDTYISKYQDPSQADAIMKVQQELDETKIVLHKTIENVLQRGEKLDNLVDKSESLTASSKMFYKQAKKSNSCCIIM
For B1, in experiment [3], the binding entry is “binds”.

B2: Sec17 (protein, UniProt P32602 1-292)
chain: MSDPVELLKRAEKKGVPSSGFMKLFSGSDSYKFEEAADLCVQAATIYRLRKELNLAGDSFLKAADYQKKAGNEDEAGNTYVEAYKCFKSGGNSVNAVDSLENAIQIFTHRGQFRRGANFKFELGEILENDLHDYAKAIDCYELAGEWYAQDQSVALSNKCFIKCADLKALDGQYIEASDIYSKLIKSSMGNRLSQWSLKDYFLKKGLCQLAATDAVAAARTLQEGQSEDPNFADSRESNFLKSLIDAVNEGDSEQLSEHCKEFDNFMRLDKWKITILNKIKESIQQQEDDLL
For the molecule B2, the binding entry in experiment [4] is “binds”.

B3: Sft1 (protein, UniProt P43682 1-97)
chain: MSNSRYSQTESNNDRKLEGLANKLATFRNINQEIGDRAVSDSSVINQMTDSLGSMFTDIKNSSSRLTRSLKAGNSIWRMVGLALLIFFILYTLFKLF
With B3, the binding result in experiment [4] is recorded as “binds”.

B4: Sly1 (protein, UniProt P22213 1-666)
chain: MAVEEIASRKDISLRDMQISAILKMLFLNKDLNNNDNITTITDDIFNQQEIIWKVLILDIKSTATISSVLRVNDLLKAGITVHSLIKQDRSPLPDVPAIYFVSPTKENIDIIVNDLKSDKYSEFYINFTSSLPRNLLEDLAQQVSITGKSDKIKQVYDQYLDFIVTEPELFSLEISNAYLTLNDPKTTEEEITGLCANIADGLFNTVLTINSIPIIRAAKGGPAEIIAEKLGTKLRDFVINTNSSSTSTLQGNDSLERGVLIILDRNIDFASMFSHSWIYQCMVFDIFKLSRNTVTIPLESKENGTDNTTAKPLATKKYDIEPNDFFWMENSHLPFPEAAENVEAALNTYKEEAAEITRKTGVTNISDLDPNSNNDTVQIQEVVKKLPELTAKKNTIDTHMNIFAALLSQLESKSLDTFFEVEQDPGSTKTRSRFLDILKDGKTNNLEDKLRSFIVLYLTSTTGLPKDFVQNVENYFKENDYDINALKYVYKLREFMQLSNMSLQNKSLEDGSDSAFKPSNLTLSGIYGLTEGKLQGGVGSLISGIKKLLPEKKTIPITNVVDAIMDPLNSSQKNLETTDSYLYIDPKITRGSHTRKPKRQSYNKSLVFVVGGGNYLEYQNLQEWAHSQLHNPKKVMYGSTAITTPAEFLNEISRLGASNSSNNDA
Turning to B4, in experiment [4], the binding entry is recorded as “binds”.
